Source: publication PMC7974533
No constants are given. Whether binding was seen depends on the method and setting. Binding seen in cells or lysates may run through a third protein. A yes stands for co-enrichment or nearness to the bait. Other partners may have been found.

Amino acid sequences for entries named in this document (tags omitted).
UniProt P32856, whole entry: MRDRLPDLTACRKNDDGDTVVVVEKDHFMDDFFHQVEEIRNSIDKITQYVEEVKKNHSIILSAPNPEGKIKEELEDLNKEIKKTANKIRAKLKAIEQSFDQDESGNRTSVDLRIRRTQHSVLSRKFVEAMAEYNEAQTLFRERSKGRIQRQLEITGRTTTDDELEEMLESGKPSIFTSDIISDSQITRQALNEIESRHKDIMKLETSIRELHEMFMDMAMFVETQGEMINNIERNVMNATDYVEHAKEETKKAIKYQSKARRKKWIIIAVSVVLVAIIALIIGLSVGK

Target: Syntaxin 2 (UniProt P32856)
Assay: affinity purification with mass spectrometry

**Q.** Which binding does the source give for Rab8a (from UniProt P61006 1-207) here?
**A.** The binding was “binds”.
